Screening data

Source: PubChem BioAssay AID1053133 (Broad Institute, 2014).

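Plate-reader measure of the Venus reporter marking one vaccinia stage in infected cells (the cell line is not named here); read time unknown. The test concentration is not given here. Percent change in Venus reporter signal; lower (more negative) values mean stronger inhibition of that viral stage.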

Values are in %. How 0% and 100% were set is not given here. Common to all entries: measured here: Venus reporter, other viral stage. This is a side read-out of the assay, for part of the compounds, not drawn at random.

* C[C@@H]1CN([C@@H](C)CO)C(=O)c2cccc(NC(=O)Nc3ccc(F)cc3)c2O[C@@H]1CN(C)S(=O)(=O)c1ccc(Cl)cc1 : activity change (Venus) -37.25%
* C[C@@H]1CCCCO[C@@H](CN(C)Cc2ccc(C(F)(F)F)cc2)[C@H](C)CN([C@H](C)CO)C(=O)c2cc(NS(=O)(=O)c3ccccc3)ccc2O1 : activity change (Venus) -65.4%
* O=S(=O)(c1cccs1)N1CCCCN2[C@@H](CO)[C@@H](c3ccc(-c4ccccc4)cc3)[C@@H]2C1 : activity change (Venus) -33.61%
* C[C@@H]1CCCCO[C@H](CN(C)Cc2ccccc2)[C@H](C)CN([C@H](C)CO)C(=O)c2cc(NS(=O)(=O)c3ccc(F)cc3)ccc2O1 : activity change (Venus) -40.47%
* Cc1noc(C)c1NC(=O)N(C)C[C@H]1Oc2cc(C#CCC3CCCC3)ccc2S(=O)(=O)N([C@@H](C)CO)C[C@@H]1C : activity change (Venus) -38.29%
* CC(C)CC#Cc1cnc2c(c1)C(=O)N([C@@H](C)CO)C[C@@H](C)[C@@H](CN(C)C(=O)Nc1cccc(F)c1)O2 : activity change (Venus) -33.06%
* C[C@@H]1CN([C@H](C)CO)C(=O)c2cccc(NC(=O)NC3CCCCC3)c2O[C@@H]1CN(C)C(=O)Nc1ccc(C(F)(F)F)cc1 : activity change (Venus) -27.5%
* CCCNC(=O)N1CC2(CN(CC3CCCCC3)C2)c2c(n(C)c3cc(OC)ccc23)[C@@H]1CO : activity change (Venus) -33.59%
* C[C@@H]1CN([C@H](C)CO)C(=O)c2cc(N(C)C)ccc2O[C@@H](C)CCCCO[C@H]1CN(C)Cc1ccc(C(F)(F)F)cc1 : activity change (Venus) -50.62%
* OC[C@@H]1[C@H](c2ccc(C3=CCCC3)cc2)[C@H]2CN(CCC(F)(F)F)CCCCN12 : activity change (Venus) -32.16%
* Cc1cccc(CN(C)C[C@@H]2Oc3ncc(-c4cc5ccccc5o4)cc3C(=O)N([C@H](C)CO)C[C@@H]2C)c1 : activity change (Venus) -41.63%
* Cc1ccc(-c2ccc([C@@H]3[C@H](CO)N4C(=O)CN(C(=O)c5ccccc5)C[C@@H]34)cc2)cc1 : activity change (Venus) -27.86%
* CNC[C@@H]1Oc2cc(C#Cc3ccccc3)ccc2S(=O)(=O)N([C@H](C)CO)C[C@H]1C : activity change (Venus) -37.39%
* COc1ccc(S(=O)(=O)N(C)C[C@@H]2Oc3ncc(/C=C/c4ccccc4)cc3C(=O)N([C@H](C)CO)C[C@@H]2C)cc1 : activity change (Venus) -36.14%
* O=C(Nc1ccccc1F)N1CC(=O)N2[C@H](C1)[C@H](c1ccc(C#Cc3ccc(F)cc3)cc1)[C@@H]2CO : activity change (Venus) -44.32%
* COc1ccc(NC(=O)Nc2ccc3c(c2)C(=O)N([C@@H](C)CO)C[C@H](C)[C@H](CN(C)CC2CCCCC2)OCCCC[C@H](C)O3)cc1 : activity change (Venus) -37.91%
* COc1ccc(CN(C)C[C@@H]2OCCCC[C@@H](C)Oc3ccc(NS(=O)(=O)c4ccc(Cl)cc4)cc3C(=O)N([C@@H](C)CO)C[C@@H]2C)cc1 : activity change (Venus) -46.67%
* C[C@@H]1CCCCO[C@@H](CN(C)C(=O)C2CCCCC2)[C@H](C)CN([C@H](C)CO)C(=O)c2cc(NC(=O)Nc3ccc(C(F)(F)F)cc3)ccc2O1 : activity change (Venus) -30.8%
* N#C[C@H]1[C@@H](c2ccc(C#Cc3cccc(F)c3)cc2)[C@H](CO)N1C(=O)C1CCCC1 : activity change (Venus) -29.49%
* C[C@H]1CN([C@@H](C)CO)S(=O)(=O)c2ccc(C#CC3CCCC3)cc2O[C@H]1CN(C)C : activity change (Venus) -52.69%
* Cc1ccccc1S(=O)(=O)N1CCCCN2[C@H](CO)[C@@H](c3ccc(-c4cccc(F)c4)cc3)[C@H]2C1 : activity change (Venus) -55.22%
* COc1ccc(-c2ccc([C@H]3[C@H](C#N)N(C(=O)NC4CCCC4)[C@H]3CO)cc2)cc1 : activity change (Venus) -31.52%
* COc1ccccc1C#Cc1ccc2c(c1)O[C@H](CN(C)Cc1cccnc1)[C@@H](C)CN([C@@H](C)CO)S2(=O)=O : activity change (Venus) -58.35%
* C[C@@H]1CN([C@@H](C)CO)C(=O)Cc2cc(NC(=O)CCC(F)(F)F)ccc2O[C@@H]1CN(C)Cc1ccc(-c2ccccc2)cc1 : activity change (Venus) -33.12%
* CC(C)NC(=O)Nc1ccc2c(c1)CC(=O)N([C@@H](C)CO)C[C@@H](C)[C@H](CN(C)C(=O)Nc1cccc3ccccc13)O2 : activity change (Venus) -33.55%
* C[C@@H]1CN([C@@H](C)CO)C(=O)c2cccc(NC(=O)Nc3ccc(F)cc3)c2O[C@@H]1CN(C)Cc1ccc(-c2ccccc2)cc1 : activity change (Venus) -51.17%
* c1ccc(CN2C[C@@H]3N[C@H](C2)C3c2ccc(-c3ccncc3)cc2)cc1 (stereo partly drawn) : activity change (Venus) -35.09%
* C[C@@H]1CN([C@@H](C)CO)C(=O)c2cccc(NC(=O)Nc3ccc(C(F)(F)F)cc3)c2O[C@H]1CN(C)C(=O)NC1CCCCC1 : activity change (Venus) -36.35%
* C[C@H]1CN([C@@H](C)CO)C(=O)c2cccc(NC(=O)Nc3ccc(C(F)(F)F)cc3)c2O[C@H]1CN(C)C(=O)Nc1ccccc1 : activity change (Venus) -49.37%
* O=C(Nc1ccccc1F)N1CC(=O)N2[C@@H](CO)[C@H](c3ccc(C#Cc4ccc(F)cc4)cc3)[C@@H]2C1 : activity change (Venus) -29.28%
* C[C@@H]1CN([C@H](C)CO)S(=O)(=O)c2ccc(C#CC3CCCCC3)cc2O[C@H]1CN(C)C : activity change (Venus) -37.09%
* COc1ccc(CN(C)C[C@@H]2OCCCC[C@@H](C)Oc3ccc(NC(=O)c4ccccc4)cc3C(=O)N([C@@H](C)CO)C[C@@H]2C)cc1 : activity change (Venus) -38.53%
* C[C@@H]1CN([C@H](C)CO)C(=O)c2cc(NS(=O)(=O)c3ccc(F)cc3)ccc2O[C@@H](C)CCCCO[C@@H]1CN(C)Cc1ccc2c(c1)OCO2 : activity change (Venus) -56.52%

The first 3 entries again:

C[C@@H]1CN([C@@H](C)CO)C(=O)c2cccc(NC(=O)Nc3ccc(F)cc3)c2O[C@@H]1CN(C)S(=O)(=O)c1ccc(Cl)cc1 read activity change (Venus) -37.25%.
C[C@@H]1CCCCO[C@@H](CN(C)Cc2ccc(C(F)(F)F)cc2)[C@H](C)CN([C@H](C)CO)C(=O)c2cc(NS(=O)(=O)c3ccccc3)ccc2O1 read activity change (Venus) -65.4%.
O=S(=O)(c1cccs1)N1CCCCN2[C@@H](CO)[C@@H](c3ccc(-c4ccccc4)cc3)[C@@H]2C1 read activity change (Venus) -33.61%.